Source: paper PMC5557982
These are yes or no findings as the source states them, for the method shown. In cells and extracts the contact can be indirect. Some binding calls cover weakened binding; strength is not graded here. Values belong to the substance of their own block, whether it stands above or below them.

The chains behind the UniProt entries cited, without tags or fusion partners.
UniProt Q8N122: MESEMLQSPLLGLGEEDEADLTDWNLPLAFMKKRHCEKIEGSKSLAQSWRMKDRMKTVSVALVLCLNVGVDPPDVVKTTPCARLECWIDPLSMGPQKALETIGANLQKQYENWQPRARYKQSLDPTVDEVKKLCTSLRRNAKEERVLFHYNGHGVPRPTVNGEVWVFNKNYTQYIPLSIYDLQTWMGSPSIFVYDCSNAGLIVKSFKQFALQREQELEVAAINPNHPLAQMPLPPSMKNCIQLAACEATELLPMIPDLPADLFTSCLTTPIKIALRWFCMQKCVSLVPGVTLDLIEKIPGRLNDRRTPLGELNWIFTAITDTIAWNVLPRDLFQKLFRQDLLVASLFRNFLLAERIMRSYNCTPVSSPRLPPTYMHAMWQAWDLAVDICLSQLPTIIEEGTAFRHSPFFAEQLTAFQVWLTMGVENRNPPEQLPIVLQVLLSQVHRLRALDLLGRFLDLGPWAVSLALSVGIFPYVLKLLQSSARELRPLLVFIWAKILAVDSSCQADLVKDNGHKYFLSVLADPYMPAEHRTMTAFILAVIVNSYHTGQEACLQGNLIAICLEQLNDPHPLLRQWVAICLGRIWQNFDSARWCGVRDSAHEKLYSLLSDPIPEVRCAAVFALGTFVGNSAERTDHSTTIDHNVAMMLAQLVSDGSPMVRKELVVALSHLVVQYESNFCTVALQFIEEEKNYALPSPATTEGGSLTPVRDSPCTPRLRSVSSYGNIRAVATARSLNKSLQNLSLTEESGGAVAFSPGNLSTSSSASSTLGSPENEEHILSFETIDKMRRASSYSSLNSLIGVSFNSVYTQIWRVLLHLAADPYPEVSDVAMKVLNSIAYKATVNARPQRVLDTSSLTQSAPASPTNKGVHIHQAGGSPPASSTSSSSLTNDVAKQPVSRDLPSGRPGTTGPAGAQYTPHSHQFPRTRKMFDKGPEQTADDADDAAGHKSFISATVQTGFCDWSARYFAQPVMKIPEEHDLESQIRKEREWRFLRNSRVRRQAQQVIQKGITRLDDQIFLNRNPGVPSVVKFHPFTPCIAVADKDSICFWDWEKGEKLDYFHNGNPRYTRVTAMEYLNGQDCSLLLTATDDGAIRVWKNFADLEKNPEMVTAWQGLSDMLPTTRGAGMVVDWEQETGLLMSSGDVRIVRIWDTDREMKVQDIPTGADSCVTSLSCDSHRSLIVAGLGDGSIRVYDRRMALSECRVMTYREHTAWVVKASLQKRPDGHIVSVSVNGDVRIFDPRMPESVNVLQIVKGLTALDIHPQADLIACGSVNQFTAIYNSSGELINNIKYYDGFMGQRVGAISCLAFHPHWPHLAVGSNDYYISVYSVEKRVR
UniProt Q8C2K1: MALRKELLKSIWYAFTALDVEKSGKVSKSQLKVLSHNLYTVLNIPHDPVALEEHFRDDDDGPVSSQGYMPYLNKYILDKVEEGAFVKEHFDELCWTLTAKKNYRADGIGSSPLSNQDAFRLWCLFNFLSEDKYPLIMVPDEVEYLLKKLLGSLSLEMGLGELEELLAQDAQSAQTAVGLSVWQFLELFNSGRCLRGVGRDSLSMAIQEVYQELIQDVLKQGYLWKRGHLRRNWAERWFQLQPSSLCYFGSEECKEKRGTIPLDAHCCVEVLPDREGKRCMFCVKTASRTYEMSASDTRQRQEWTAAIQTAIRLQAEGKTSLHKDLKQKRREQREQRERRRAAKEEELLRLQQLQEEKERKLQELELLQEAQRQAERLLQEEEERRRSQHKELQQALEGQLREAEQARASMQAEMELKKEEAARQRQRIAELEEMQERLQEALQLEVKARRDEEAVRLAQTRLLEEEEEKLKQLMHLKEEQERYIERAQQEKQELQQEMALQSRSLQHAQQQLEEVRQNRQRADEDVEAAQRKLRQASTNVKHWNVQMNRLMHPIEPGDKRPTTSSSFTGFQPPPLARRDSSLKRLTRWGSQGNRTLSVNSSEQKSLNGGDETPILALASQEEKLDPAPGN

How the values were obtained:
[1] = molecular target: HA-tagged Def6 (UniProt Q9H4E7); assay: co-IP; 293T cells cotransfected with tagged constructs, with or without Def6 expression vector; cell extracts immunoprecipitated with anti-HA, western blotting
[2] = molecular target: T1, TRAF6 (endogenous, mouse T cells) (mouse (endogenous in T cells)) (UniProt P70196); assay: co-IP; endogenous proteins; whole-cell extracts of wt mouse T cells; immunoprecipitation with anti-Raptor, anti-p62 or anti-TRAF6, western blotting
T1 sequence: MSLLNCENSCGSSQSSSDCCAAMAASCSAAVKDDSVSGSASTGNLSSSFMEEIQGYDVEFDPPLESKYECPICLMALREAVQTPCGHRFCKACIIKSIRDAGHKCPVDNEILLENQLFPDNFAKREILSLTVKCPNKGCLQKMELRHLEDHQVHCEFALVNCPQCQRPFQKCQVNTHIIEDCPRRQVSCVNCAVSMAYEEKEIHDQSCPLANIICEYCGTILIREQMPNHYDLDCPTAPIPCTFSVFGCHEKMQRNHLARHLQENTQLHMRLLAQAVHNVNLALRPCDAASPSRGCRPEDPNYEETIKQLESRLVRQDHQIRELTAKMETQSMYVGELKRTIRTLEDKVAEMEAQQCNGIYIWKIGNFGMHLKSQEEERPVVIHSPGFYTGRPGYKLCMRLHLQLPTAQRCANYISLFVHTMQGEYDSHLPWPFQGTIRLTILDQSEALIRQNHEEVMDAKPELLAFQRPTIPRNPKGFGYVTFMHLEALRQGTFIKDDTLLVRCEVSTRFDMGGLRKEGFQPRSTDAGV

[3] = molecular target: p62 (endogenous, mouse T cells) (mouse (endogenous in T cells)) (UniProt Q64337); assay: as above
[4] = molecular target: HA-tagged p62 (UniProt Q13501); assay: co-IP; 293T cells cotransfected with tagged constructs, with or without Def6 expression vector; cell extracts immunoprecipitated with anti-HA, western blotting

binding [1]: no binding
Substance: Myc-tagged raptor (from UniProt Q8N122 1-1335)

binding [2]: binds
binding [3]: binds
Substance: Def6 (endogenous, mouse T cells) (from UniProt Q8C2K1 1-630)

binding [4]: binds
Substance: Def6 (untagged, expression vector) (from UniProt Q9H4E7 1-631)
